For the assay, the target named is T1, 3xFLAG-dyskerin (Flag-tagged full-length dyskerin) (human) (UniProt O60832).
T1 sequence: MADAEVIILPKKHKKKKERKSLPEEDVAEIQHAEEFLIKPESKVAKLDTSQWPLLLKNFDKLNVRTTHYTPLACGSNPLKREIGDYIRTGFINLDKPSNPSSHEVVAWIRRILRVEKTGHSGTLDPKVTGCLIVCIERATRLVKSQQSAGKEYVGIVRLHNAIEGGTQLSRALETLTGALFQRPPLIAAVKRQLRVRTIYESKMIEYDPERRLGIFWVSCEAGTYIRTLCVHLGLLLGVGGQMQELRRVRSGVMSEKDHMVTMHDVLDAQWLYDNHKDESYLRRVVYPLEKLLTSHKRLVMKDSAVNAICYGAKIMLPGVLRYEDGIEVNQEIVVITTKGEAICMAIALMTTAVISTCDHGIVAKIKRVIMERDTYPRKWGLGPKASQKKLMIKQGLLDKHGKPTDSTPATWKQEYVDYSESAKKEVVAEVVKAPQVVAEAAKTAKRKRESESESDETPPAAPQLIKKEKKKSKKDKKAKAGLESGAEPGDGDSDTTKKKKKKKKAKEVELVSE
The assay is described as follows: co-IP; lysates (about 1 mg, RIPA buffer: 50 mM Tris pH 8, 150 mM NaCl, 5 mM EDTA, 1% NP40) of HEK and U2OS cells transfected with 3xFLAG-dyskerin, incubated overnight at 4 °C with ANTI-FLAG M2 Affinity Gel beads, washed with TBS, immunoblot; also after mild heat shock of the cells (45 °C 30 min, 30 min recovery).

Chains of the proteins cited; added tags and fusions are not shown.
UniProt Q07157: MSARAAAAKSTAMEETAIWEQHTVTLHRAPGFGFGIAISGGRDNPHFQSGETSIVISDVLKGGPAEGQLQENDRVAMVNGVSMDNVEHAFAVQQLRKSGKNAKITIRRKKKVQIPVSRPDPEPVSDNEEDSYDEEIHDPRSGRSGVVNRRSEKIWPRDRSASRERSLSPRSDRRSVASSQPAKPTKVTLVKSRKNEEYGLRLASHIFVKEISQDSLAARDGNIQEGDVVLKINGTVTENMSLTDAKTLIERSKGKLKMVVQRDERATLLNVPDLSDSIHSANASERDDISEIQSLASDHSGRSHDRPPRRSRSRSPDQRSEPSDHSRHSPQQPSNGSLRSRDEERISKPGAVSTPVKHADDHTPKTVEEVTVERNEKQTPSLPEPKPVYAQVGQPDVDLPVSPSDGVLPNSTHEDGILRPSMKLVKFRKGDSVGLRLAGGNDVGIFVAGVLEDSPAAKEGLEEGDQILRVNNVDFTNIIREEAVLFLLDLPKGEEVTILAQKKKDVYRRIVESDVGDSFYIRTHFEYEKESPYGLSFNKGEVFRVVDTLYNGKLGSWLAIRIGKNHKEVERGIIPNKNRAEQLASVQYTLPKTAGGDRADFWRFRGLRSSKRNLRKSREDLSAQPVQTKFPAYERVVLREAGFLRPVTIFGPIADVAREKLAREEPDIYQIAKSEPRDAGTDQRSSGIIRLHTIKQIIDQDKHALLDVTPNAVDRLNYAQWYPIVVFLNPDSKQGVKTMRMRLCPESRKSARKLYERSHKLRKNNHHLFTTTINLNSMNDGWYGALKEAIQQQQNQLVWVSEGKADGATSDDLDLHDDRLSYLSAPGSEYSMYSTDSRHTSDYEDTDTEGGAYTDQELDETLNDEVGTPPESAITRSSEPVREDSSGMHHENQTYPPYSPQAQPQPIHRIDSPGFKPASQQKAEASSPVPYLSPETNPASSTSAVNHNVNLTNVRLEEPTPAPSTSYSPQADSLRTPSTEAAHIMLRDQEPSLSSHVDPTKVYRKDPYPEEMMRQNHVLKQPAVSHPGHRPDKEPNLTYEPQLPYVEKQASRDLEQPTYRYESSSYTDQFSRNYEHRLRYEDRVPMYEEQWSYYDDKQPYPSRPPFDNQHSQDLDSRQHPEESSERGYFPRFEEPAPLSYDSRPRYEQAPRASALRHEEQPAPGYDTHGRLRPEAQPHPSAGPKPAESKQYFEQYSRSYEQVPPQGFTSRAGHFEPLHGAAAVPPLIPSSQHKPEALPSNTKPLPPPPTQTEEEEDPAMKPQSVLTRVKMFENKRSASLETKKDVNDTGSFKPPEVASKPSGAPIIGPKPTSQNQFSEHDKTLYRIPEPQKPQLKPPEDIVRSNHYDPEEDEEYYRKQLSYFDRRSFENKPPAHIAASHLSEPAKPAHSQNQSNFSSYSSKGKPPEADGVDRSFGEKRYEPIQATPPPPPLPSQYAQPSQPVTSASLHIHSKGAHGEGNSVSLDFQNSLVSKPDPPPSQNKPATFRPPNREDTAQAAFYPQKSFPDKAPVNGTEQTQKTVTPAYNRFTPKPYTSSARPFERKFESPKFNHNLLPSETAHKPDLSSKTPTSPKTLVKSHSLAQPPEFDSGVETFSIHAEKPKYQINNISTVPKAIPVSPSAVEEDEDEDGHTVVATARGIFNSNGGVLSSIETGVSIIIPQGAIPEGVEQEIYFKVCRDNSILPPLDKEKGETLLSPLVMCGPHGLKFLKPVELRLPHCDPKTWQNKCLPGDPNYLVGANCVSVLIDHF

No constants are given. Whether binding was seen depends on the method and setting. In cells and extracts the contact can be indirect. Sequences can lack the tags named with a protein.

With “membrane protein Zo-1 (from UniProt Q07157 1-1748)”, the binding entry was “no binding”.

The values are drawn from PMC10531313.
